Only a part is listed here, and it is no random draw.
These targets were tested with COC(=O)C#Cc1ccccc1 [methyl 3-phenylpropiolate] (assay: log2 ratio of iodoacetamide-alkyne labeling of the cysteine site, DMSO over compound (competition); higher = stronger covalent engagement of the cysteine by the compound, active = 1 or more). Conditions: 500 µM; treatment time 1 h; system: HEK293T cell lysate.
Method in brief: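 HEK293T lysate at 2 mg/mL was treated with vehicle or electrophile (500 µM) for 1 h at ambient temperature, then labelled with iodoacetamide alkyne (1 h), clicked to sCIP-TMT reagents, pooled, digested with trypsin overnight at 37 °C, enriched on streptavidin and eluted with acid. Peptides were analysed by Orbitrap Eclipse LC-MS/MS with FAIMS and quantified in FragPipe, using duplicate channels and three replicates, with cysteines quantified in only one replicate excluded. The log2 competition ratio for each cysteine is the mean control-channel reporter intensity divided by the mean compound-channel reporter intensity.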

By UniProt entry, the sequences of proteins in these tests, tags left out. Where a name states a change or a piece, a line headed by the entry shows the natural chain unless it says otherwise.
UniProt Q9H1Y0: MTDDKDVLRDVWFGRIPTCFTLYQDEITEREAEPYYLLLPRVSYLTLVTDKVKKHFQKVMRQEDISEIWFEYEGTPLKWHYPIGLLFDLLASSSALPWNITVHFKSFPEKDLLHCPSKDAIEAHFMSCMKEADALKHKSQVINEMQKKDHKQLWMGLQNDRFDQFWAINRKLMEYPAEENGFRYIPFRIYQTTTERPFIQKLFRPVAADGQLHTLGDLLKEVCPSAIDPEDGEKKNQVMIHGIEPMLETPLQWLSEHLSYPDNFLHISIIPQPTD
UniProt Q9C0C2: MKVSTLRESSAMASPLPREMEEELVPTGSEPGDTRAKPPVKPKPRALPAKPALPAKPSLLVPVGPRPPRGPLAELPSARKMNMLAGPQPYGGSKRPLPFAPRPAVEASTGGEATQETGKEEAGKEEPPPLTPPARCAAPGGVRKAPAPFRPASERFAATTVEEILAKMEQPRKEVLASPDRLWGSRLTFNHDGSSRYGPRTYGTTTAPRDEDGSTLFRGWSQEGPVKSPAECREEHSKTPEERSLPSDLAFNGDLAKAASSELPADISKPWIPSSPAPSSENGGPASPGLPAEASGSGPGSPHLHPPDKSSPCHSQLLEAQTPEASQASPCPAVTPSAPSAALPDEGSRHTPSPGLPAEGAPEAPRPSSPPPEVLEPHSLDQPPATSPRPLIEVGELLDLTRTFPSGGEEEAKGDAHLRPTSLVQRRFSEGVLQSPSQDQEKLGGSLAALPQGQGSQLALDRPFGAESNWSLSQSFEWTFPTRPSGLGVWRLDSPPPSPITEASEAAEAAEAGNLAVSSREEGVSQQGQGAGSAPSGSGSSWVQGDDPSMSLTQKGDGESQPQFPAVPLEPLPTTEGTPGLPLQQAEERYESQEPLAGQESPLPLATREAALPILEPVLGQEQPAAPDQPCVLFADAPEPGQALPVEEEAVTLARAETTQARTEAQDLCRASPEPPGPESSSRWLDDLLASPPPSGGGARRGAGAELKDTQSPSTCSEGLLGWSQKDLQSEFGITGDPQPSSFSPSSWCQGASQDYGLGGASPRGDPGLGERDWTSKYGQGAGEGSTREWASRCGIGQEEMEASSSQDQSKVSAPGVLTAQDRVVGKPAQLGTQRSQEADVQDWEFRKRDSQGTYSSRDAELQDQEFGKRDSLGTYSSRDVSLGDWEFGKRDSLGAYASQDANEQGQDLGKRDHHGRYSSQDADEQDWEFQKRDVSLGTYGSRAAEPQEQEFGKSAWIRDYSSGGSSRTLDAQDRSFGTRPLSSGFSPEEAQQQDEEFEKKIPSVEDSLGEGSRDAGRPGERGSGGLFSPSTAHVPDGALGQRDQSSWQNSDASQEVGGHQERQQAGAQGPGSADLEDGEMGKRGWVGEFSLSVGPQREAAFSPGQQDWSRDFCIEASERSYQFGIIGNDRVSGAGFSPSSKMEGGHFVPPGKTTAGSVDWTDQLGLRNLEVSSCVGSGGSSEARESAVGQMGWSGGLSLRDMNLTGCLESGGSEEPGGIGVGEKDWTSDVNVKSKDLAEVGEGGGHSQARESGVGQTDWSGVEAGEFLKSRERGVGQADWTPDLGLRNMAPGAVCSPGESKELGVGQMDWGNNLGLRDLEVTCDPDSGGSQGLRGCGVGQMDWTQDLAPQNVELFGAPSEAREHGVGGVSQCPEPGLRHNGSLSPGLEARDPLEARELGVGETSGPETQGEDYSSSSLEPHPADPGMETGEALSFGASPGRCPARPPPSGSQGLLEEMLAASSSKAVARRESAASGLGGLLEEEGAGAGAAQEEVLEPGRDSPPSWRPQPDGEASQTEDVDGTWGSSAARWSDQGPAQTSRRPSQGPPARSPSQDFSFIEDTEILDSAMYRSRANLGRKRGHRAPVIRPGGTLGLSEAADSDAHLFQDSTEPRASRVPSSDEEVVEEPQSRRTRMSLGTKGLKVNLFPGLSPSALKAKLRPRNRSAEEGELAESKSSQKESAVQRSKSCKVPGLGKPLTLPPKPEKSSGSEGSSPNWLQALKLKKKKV
UniProt Q9BYG3: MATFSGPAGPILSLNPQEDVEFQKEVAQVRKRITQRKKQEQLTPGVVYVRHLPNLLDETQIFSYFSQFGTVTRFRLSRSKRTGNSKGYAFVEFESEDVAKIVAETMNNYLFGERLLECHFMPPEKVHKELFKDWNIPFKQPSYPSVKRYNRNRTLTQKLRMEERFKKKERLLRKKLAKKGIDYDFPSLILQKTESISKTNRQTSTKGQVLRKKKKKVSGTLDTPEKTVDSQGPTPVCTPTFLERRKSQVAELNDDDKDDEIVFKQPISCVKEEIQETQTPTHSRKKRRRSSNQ
UniProt Q9BXP2: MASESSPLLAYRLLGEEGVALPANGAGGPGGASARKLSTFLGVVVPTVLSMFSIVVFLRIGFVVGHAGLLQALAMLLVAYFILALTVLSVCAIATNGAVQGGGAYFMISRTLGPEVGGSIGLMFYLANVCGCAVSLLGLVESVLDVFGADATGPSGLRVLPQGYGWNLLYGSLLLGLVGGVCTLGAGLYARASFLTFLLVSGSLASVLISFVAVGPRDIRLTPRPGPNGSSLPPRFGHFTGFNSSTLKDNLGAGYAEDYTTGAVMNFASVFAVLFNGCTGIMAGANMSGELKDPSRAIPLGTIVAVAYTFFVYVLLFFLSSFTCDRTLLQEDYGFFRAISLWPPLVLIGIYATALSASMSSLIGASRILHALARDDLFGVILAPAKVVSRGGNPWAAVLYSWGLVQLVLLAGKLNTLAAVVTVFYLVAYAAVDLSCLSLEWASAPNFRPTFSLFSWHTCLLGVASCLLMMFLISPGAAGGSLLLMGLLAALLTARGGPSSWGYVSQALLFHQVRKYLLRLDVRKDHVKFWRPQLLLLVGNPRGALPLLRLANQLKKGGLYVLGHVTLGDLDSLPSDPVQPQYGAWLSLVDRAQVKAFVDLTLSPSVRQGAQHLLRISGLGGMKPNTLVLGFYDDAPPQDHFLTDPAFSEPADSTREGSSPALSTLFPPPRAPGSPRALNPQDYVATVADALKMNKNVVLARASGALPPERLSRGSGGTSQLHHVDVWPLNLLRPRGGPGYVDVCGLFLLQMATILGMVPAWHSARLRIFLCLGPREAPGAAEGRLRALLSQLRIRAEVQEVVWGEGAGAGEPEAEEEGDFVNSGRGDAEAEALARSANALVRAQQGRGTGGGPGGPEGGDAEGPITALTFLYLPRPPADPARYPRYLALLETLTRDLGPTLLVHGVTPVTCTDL
UniProt Q9BTC0, whole entry, looked up: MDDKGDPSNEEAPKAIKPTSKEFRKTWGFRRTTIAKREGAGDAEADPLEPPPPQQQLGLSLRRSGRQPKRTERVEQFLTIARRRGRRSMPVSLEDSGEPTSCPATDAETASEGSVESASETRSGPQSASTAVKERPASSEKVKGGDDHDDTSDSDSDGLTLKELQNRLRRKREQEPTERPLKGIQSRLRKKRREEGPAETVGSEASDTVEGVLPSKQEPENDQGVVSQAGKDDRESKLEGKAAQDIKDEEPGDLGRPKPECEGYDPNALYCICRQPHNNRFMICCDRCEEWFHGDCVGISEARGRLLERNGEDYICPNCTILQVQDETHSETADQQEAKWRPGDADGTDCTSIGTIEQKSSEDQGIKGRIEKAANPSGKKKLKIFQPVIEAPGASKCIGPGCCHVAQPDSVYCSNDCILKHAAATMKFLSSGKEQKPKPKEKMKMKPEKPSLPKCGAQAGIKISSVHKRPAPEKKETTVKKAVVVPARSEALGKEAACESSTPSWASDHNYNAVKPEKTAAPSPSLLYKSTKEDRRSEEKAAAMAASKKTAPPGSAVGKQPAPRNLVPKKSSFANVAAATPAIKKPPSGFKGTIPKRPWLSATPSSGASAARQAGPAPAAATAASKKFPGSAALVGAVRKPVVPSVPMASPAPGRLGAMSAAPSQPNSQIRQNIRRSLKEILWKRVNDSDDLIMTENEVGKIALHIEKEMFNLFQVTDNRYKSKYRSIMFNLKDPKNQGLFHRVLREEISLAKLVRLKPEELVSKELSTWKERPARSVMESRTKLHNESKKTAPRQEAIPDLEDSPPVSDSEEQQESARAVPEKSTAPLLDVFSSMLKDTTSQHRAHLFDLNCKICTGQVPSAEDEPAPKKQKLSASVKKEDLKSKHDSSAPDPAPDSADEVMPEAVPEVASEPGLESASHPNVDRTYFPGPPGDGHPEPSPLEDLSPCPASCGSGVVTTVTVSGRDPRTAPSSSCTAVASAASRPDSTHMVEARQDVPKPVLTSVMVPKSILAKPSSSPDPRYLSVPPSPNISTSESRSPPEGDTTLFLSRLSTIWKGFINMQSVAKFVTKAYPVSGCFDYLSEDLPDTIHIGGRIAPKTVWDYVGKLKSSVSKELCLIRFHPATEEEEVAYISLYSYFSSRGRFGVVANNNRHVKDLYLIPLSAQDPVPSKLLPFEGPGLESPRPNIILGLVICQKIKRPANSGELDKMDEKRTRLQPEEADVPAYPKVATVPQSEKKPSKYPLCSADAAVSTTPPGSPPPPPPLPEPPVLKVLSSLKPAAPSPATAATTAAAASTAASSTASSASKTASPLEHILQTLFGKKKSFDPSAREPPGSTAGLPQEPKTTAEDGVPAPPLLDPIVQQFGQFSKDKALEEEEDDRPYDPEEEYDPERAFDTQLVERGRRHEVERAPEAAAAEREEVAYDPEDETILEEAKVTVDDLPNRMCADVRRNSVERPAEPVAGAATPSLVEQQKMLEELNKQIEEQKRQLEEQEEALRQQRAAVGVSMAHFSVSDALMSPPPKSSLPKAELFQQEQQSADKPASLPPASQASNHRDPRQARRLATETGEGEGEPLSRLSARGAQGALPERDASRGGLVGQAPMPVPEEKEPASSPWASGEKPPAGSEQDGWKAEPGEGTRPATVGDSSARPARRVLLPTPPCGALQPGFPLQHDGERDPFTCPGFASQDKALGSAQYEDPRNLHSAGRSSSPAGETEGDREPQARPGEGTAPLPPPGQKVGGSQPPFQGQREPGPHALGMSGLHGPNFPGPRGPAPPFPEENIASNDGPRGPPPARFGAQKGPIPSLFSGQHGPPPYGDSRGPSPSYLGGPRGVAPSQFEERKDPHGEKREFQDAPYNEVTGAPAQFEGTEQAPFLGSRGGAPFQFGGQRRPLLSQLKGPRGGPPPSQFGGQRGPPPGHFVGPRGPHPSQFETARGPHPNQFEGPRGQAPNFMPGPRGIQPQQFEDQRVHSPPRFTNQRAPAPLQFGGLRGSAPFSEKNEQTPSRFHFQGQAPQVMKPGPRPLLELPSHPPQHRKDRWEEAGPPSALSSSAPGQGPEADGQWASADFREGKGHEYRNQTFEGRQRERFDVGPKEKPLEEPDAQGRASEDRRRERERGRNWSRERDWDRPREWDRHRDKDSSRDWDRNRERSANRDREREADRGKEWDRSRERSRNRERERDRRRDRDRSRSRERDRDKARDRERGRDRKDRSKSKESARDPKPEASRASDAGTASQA
UniProt Q9BYI3: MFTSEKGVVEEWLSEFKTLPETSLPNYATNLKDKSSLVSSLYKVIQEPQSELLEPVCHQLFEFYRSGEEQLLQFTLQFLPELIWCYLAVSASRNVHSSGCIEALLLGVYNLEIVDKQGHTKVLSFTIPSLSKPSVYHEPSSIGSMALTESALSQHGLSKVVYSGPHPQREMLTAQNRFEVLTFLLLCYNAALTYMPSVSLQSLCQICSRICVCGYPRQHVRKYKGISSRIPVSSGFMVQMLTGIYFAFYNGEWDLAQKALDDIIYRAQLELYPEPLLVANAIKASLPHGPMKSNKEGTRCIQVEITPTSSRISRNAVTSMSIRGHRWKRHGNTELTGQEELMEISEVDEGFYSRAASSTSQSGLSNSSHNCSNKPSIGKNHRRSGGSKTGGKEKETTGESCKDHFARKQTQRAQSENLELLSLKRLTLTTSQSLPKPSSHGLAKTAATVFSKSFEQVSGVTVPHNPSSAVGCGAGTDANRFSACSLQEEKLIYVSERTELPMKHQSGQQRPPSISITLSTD
UniProt Q9BSH5: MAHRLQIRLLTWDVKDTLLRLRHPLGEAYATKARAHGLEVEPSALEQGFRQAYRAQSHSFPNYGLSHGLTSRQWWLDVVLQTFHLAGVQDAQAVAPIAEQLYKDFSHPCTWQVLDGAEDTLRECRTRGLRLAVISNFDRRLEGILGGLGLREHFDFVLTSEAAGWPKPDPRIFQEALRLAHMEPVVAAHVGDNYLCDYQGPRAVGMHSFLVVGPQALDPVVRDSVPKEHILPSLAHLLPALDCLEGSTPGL
UniProt Q9BT67: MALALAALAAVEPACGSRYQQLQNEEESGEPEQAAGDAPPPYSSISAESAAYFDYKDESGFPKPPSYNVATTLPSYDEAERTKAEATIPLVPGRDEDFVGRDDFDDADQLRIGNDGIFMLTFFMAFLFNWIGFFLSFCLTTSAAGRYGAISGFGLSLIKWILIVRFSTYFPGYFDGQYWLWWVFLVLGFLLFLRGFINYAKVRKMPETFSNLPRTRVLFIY

Target	log2 ratio of iodoacetamide-alkyne labeling
TOLLIP C229 (UniProt Q9H0E2)	inactive: 0.227
ATG5 C19 (UniProt Q9H1Y0)	inactive: 0.309
FTO C171 (UniProt Q9C0B1)	inactive: 0.392
TANC1 C131 (UniProt Q9C0D5)	inactive: 0.487
UniProt Q9BTY7_C199	inactive: -0.147
TANC1 C1651 (UniProt Q9C0D5)	inactive: 0.345
ILKAP C221 (UniProt Q9H0C8)	inactive: 0.46
GNL3 C280 (UniProt Q9BVP2)	inactive: 0.506
G6PC3 C269 (UniProt Q9BUM1)	inactive: 0.879
WAC C553 (UniProt Q9BTA9)	inactive: 0.791
KIFC1 C144 (UniProt Q9BW19)	inactive: 0.388
RNF126 C15 (UniProt Q9BV68)	inactive: 0.119
TNKS1BP1 C1296 (UniProt Q9C0C2)	inactive: 0.451
UniProt Q9BYG3_C269	inactive: 0.771
C7orf50 C107 (UniProt Q9BRJ6)	inactive: 0.318
SLC12A9 C911 (UniProt Q9BXP2)	inactive: 0.192
DIDO1 C455 (UniProt Q9BTC0)	inactive: 0.67
GNL3 C156 (UniProt Q9BVP2)	inactive: 0.0603
TNKS1BP1 C1114 (UniProt Q9C0C2)	inactive: 0.316

Target	log2 ratio of iodoacetamide-alkyne labeling
RAB3GAP2 C78 (UniProt Q9H2M9)	inactive: 0.101
FAM126A C300 (UniProt Q9BYI3)	inactive: 0.174
UniProt Q9BWW4_C80	inactive: 0.318
CORO1B C475 (UniProt Q9BR76)	inactive: 0.0714
XRN2 C296 (UniProt Q9H0D6)	inactive: 0.209
HDAC8 C153 (UniProt Q9BY41)	inactive: 0.132
UniProt Q9BVL4_C629	inactive: 0.737
XPO4 C492 (UniProt Q9C0E2)	inactive: 0.109
MRPL37 C268 (UniProt Q9BZE1)	inactive: 0.221
HDHD3 C243 (UniProt Q9BSH5)	inactive: 0.16
HDHD3 C196 (UniProt Q9BSH5)	inactive: 0.144
UPF3B C319 (UniProt Q9BZI7)	inactive: 0.505
TUBGCP2 C350 (UniProt Q9BSJ2)	inactive: 0.175
MSTO1 C46 (UniProt Q9BUK6)	inactive: 0.147
SETD2 C1241 (UniProt Q9BYW2)	inactive: 0.267
UniProt Q9BSD7_C101	inactive: 0.546
NDFIP1 C15 (UniProt Q9BT67)	inactive: 0.466
SETD2 C958 (UniProt Q9BYW2)	active: 1.02

Part of the list above, set out differently.
RAB3GAP2 C78 (UniProt Q9H2M9)
  log2 ratio of iodoacetamide-alkyne labeling: inactive: 0.101
FAM126A C300 (UniProt Q9BYI3)
  log2 ratio of iodoacetamide-alkyne labeling: inactive: 0.174
UniProt Q9BWW4_C80
  log2 ratio of iodoacetamide-alkyne labeling: inactive: 0.318

From the supplement of paper PMC11006884
